{"source": "PubChem BioAssay AID1259254 (NCATS, 2017)", "purpose": "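Genome-wide screen for genes that prevent DNA re-replication in cancer cells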 (primary screen)", "cells": "human HCT116 colorectal cancer cells", "reagent": "single siRNA against human genes", "time to read-out": "3 days", "read-out": "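Nuclei stained with Hoechst and imaged; cell-cycle phase assigned by DNA content; G2 share scaled per plate, non-targeting siRNA 0%, GMNN siRNA 100%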", "direction": "G2 robust z-score: higher = more G2 cells, more excess DNA replication", "call rule": "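An siRNA counts as active if its G2 robust z-score lies at least 5 MADs above the screen median; here such calls match roughly 38% of GMNN control or more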", "note": "The deposit covers about 59,000 reagents; below is a random part of them. About 1,550 of all reagents (2.6%) were called active. 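G2 share is only a proxy for re-replication; each gene was hit by three separate siRNAs, and active genes were retested.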 The numbers tell different reagents against one gene apart. Further read-outs or replicates are left out here. Not given: the amount of reagent."}
{"gene": "IL25 (interleukin 25)", "siRNA no.": 1, "G2 robust z-score": 0.373, "call": "inactive"}
{"gene": "IL25 (interleukin 25)", "siRNA no.": 2, "G2 robust z-score": 0.0905, "call": "inactive"}
{"gene": "IL25 (interleukin 25)", "siRNA no.": 3, "G2 robust z-score": -0.471, "call": "inactive"}
{"gene": "PMF1 (polyamine modulated factor 1)", "siRNA no.": 1, "G2 robust z-score": 0.0259, "call": "inactive"}
{"gene": "PMF1 (polyamine modulated factor 1)", "siRNA no.": 2, "G2 robust z-score": 0.109, "call": "inactive"}
{"gene": "PMF1 (polyamine modulated factor 1)", "siRNA no.": 3, "G2 robust z-score": 1.19, "call": "inactive"}
{"gene": "IL15RA (interleukin 15 receptor subunit alpha)", "siRNA no.": 1, "G2 robust z-score": 0.796, "call": "inactive"}
{"gene": "IL15RA (interleukin 15 receptor subunit alpha)", "siRNA no.": 2, "G2 robust z-score": 0.491, "call": "inactive"}
{"gene": "IL15RA (interleukin 15 receptor subunit alpha)", "siRNA no.": 3, "G2 robust z-score": 0.554, "call": "inactive"}
{"gene": "TSPAN7 (tetraspanin 7)", "siRNA no.": 1, "G2 robust z-score": 2.53, "call": "inactive"}
{"gene": "TSPAN7 (tetraspanin 7)", "siRNA no.": 2, "G2 robust z-score": -0.131, "call": "inactive"}
{"gene": "TSPAN7 (tetraspanin 7)", "siRNA no.": 3, "G2 robust z-score": 0.798, "call": "inactive"}
{"gene": "ABCB9 (ATP binding cassette subfamily B member 9)", "siRNA no.": 1, "G2 robust z-score": -1.11, "call": "inactive"}
{"gene": "ABCB9 (ATP binding cassette subfamily B member 9)", "siRNA no.": 2, "G2 robust z-score": 0.483, "call": "inactive"}
{"gene": "ABCB9 (ATP binding cassette subfamily B member 9)", "siRNA no.": 3, "G2 robust z-score": -1.49, "call": "inactive"}
{"gene": "FBXO15 (F-box protein 15)", "siRNA no.": 1, "G2 robust z-score": -0.123, "call": "inactive"}
{"gene": "FBXO15 (F-box protein 15)", "siRNA no.": 2, "G2 robust z-score": 0.443, "call": "inactive"}
{"gene": "FBXO15 (F-box protein 15)", "siRNA no.": 3, "G2 robust z-score": 1.83, "call": "inactive"}

In a second layout: entries from further up
gene	siRNA no.	G2 robust z-score	call
IL25 (interleukin 25)	3	-0.471	inactive
PMF1 (polyamine modulated factor 1)	1	0.0259	inactive

Further reagents follow.
{"gene": "VGLL4 (vestigial like family member 4)", "siRNA no.": 1, "G2 robust z-score": -0.85, "call": "inactive"}
{"gene": "VGLL4 (vestigial like family member 4)", "siRNA no.": 2, "G2 robust z-score": -0.123, "call": "inactive"}
{"gene": "VGLL4 (vestigial like family member 4)", "siRNA no.": 3, "G2 robust z-score": 0.895, "call": "inactive"}
{"gene": "NAB1 (NGFI-A binding protein 1)", "siRNA no.": 1, "G2 robust z-score": 1.25, "call": "inactive"}
{"gene": "NAB1 (NGFI-A binding protein 1)", "siRNA no.": 2, "G2 robust z-score": 2.44, "call": "inactive"}
{"gene": "NAB1 (NGFI-A binding protein 1)", "siRNA no.": 3, "G2 robust z-score": -0.135, "call": "inactive"}
{"gene": "OR2AK2 (olfactory receptor family 2 subfamily AK member 2)", "siRNA no.": 1, "G2 robust z-score": 0.505, "call": "inactive"}
{"gene": "OR2AK2 (olfactory receptor family 2 subfamily AK member 2)", "siRNA no.": 2, "G2 robust z-score": -0.771, "call": "inactive"}
{"gene": "OR2AK2 (olfactory receptor family 2 subfamily AK member 2)", "siRNA no.": 3, "G2 robust z-score": -0.847, "call": "inactive"}
{"gene": "MANEA (mannosidase endo-alpha)", "siRNA no.": 1, "G2 robust z-score": -0.486, "call": "inactive"}
{"gene": "MANEA (mannosidase endo-alpha)", "siRNA no.": 2, "G2 robust z-score": -0.415, "call": "inactive"}
{"gene": "MANEA (mannosidase endo-alpha)", "siRNA no.": 3, "G2 robust z-score": -0.358, "call": "inactive"}
